The supplement of paper PMC8728848
Some of the results follow.

Legend:
Experiment in all cases: glycan array binding signal (z-score within array); higher = stronger binding
Settings in all cases: glycan notation: IUPAC condensed, linker removed
[1] = biological target: GlcNAc(a1-6)Gal(b1-4)GlcNAc
How it was run: (§1)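 Glycan array binding is given as a within-array Z-score, which can be read as non-binding when negative. The arrays, 3228 of them, came from the Consortium for Functional Glycomics database and were retained only where the protein sequence was available. Z-scores were averaged across arrays of the same protein sequence at different concentrations or buffers and across linkers.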

[2] = biological target: GlcNAc(b1-2)Gal(b1-3)GalNAc
How it was run: as §1

[3] = biological target: GlcNAc(b1-2)Man(a1-3)[GlcNAc(b1-2)Man(a1-6)]Man(b1-4)GlcNAc(b1-4)GlcNAc
How it was run: as §1

[4] = biological target: GlcNAc(b1-2)Man(a1-3)[GlcNAc(b1-2)Man(a1-6)]Man(b1-4)GlcNAc(b1-4)[Fuc(a1-6)]GlcNAc
How it was run: as §1

[5] = biological target: GlcNAc(b1-2)Man(a1-3)[GlcNAc(b1-4)][GlcNAc(b1-2)Man(a1-6)]Man(b1-4)GlcNAc(b1-4)GlcNAc
How it was run: as §1

[6] = biological target: GlcNAc(b1-2)Man(a1-3)[GlcNAc(b1-4)][GlcNAc(b1-2)Man(a1-6)]Man(b1-4)GlcNAc(b1-4)[Fuc(a1-6)]GlcNAc
How it was run: as §1

[7] = biological target: GlcNAc(b1-2)[GlcNAc(b1-4)]Man(a1-3)[GlcNAc(b1-2)Man(a1-6)]Man(b1-4)GlcNAc(b1-4)GlcNAc
How it was run: as §1

[8] = biological target: GlcNAc(b1-2)[GlcNAc(b1-4)]Man(a1-3)[GlcNAc(b1-4)][GlcNAc(b1-2)Man(a1-6)]Man(b1-4)GlcNAc(b1-4)GlcNAc
How it was run: as §1

[9] = biological target: GlcNAc(b1-2)[GlcNAc(b1-4)]Man(a1-3)[GlcNAc(b1-4)][GlcNAc(b1-2)[GlcNAc(b1-6)]Man(a1-6)]Man(b1-4)GlcNAc(b1-4)GlcNAc
How it was run: as §1

[10] = biological target: GlcNAc(b1-2)[GlcNAc(b1-4)]Man(a1-3)[GlcNAc(b1-4)][GlcNAc(b1-2)[GlcNAc(b1-6)]Man(a1-6)]Man(b1-4)GlcNAc(b1-4)[Fuc(a1-6)]GlcNAc
How it was run: as §1

[11] = biological target: GlcNAc(b1-2)[GlcNAc(b1-6)]Man(a1-6)[GlcNAc(b1-2)Man(a1-3)]Man(b1-4)GlcNAc(b1-4)GlcNAc
How it was run: as §1

[12] = biological target: GlcNAc(b1-2)[GlcNAc(b1-6)]Man(a1-6)[GlcNAc(b1-2)Man(a1-3)]Man(b1-4)GlcNAc(b1-4)[Fuc(a1-6)]GlcNAc
How it was run: as §1

[13] = biological target: GlcNAc(b1-2)[GlcNAc(b1-6)]Man(a1-6)[GlcNAc(b1-4)][GlcNAc(b1-2)Man(a1-3)]Man(b1-4)GlcNAc(b1-4)GlcNAc
How it was run: as §1

GlcNAc(b1-3)Fuc = biological target: GlcNAc(b1-3)Fuc
How it was run: as §1

GlcNAc(b1-3)Gal = biological target: GlcNAc(b1-3)Gal
How it was run: as §1

[14] = biological target: GlcNAc(b1-3)Gal(b1-3)GalNAc
How it was run: as §1

GlcNAc(b1-3)Gal(b1-4)Glc = biological target: GlcNAc(b1-3)Gal(b1-4)Glc
How it was run: as §1

[15] = biological target: GlcNAc(b1-3)Gal(b1-4)GlcNAc
How it was run: as §1

[16] = biological target: GlcNAc(b1-3)Gal(b1-4)GlcNAc(b1-2)Man(a1-3)[GlcNAc(b1-3)Gal(b1-4)GlcNAc(b1-2)Man(a1-6)]Man(b1-4)GlcNAc(b1-4)GlcNAc
How it was run: as §1

[17] = biological target: GlcNAc(b1-3)Gal(b1-4)GlcNAc(b1-2)Man(a1-3)[GlcNAc(b1-3)Gal(b1-4)GlcNAc(b1-2)Man(a1-6)]Man(b1-4)GlcNAc(b1-4)[Fuc(a1-6)]GlcNAc
How it was run: as §1

[18] = biological target: GlcNAc(b1-3)Gal(b1-4)GlcNAc(b1-2)[GlcNAc(b1-3)Gal(b1-4)GlcNAc(b1-6)]Man(a1-6)[GlcNAc(b1-3)Gal(b1-4)GlcNAc(b1-2)Man(a1-3)]Man(b1-4)GlcNAc(b1-4)GlcNAc
How it was run: as §1

[19] = biological target: GlcNAc(b1-3)Gal(b1-4)GlcNAc(b1-3)Gal(b1-4)GlcNAc
How it was run: as §1

[20] = biological target: GlcNAc(b1-3)Gal(b1-4)GlcNAc(b1-3)Gal(b1-4)GlcNAc(b1-2)Man(a1-3)[GlcNAc(b1-3)Gal(b1-4)GlcNAc(b1-3)Gal(b1-4)GlcNAc(b1-2)Man(a1-6)]Man(b1-4)GlcNAc(b1-4)GlcNAc
How it was run: as §1

[21] = biological target: GlcNAc(b1-3)Gal(b1-4)GlcNAc(b1-3)Gal(b1-4)GlcNAc(b1-2)Man(a1-3)[GlcNAc(b1-3)Gal(b1-4)GlcNAc(b1-3)Gal(b1-4)GlcNAc(b1-2)Man(a1-6)]Man(b1-4)GlcNAc(b1-4)[Fuc(a1-6)]GlcNAc
How it was run: as §1

[22] = biological target: GlcNAc(b1-3)Gal(b1-4)GlcNAc(b1-3)Gal(b1-4)GlcNAc(b1-2)[GlcNAc(b1-3)Gal(b1-4)GlcNAc(b1-3)Gal(b1-4)GlcNAc(b1-6)]Man(a1-6)[GlcNAc(b1-3)Gal(b1-4)GlcNAc(b1-3)Gal(b1-4)GlcNAc(b1-2)Man(a1-3)]Man(b1-4)GlcNAc(b1-4)[Fuc(a1-6)]GlcNAc
How it was run: as §1

[23] = biological target: GlcNAc(b1-3)Gal(b1-4)GlcNAc(b1-3)Gal(b1-4)GlcNAc(b1-3)Gal(b1-4)GlcNAc(b1-2)Man(a1-3)[GlcNAc(b1-3)Gal(b1-4)GlcNAc(b1-3)Gal(b1-4)GlcNAc(b1-3)Gal(b1-4)GlcNAc(b1-2)Man(a1-6)]Man(b1-4)GlcNAc(b1-4)GlcNAc
How it was run: as §1

[24] = biological target: GlcNAc(b1-3)Gal(b1-4)GlcNAc(b1-3)Gal(b1-4)GlcNAc(b1-3)Gal(b1-4)GlcNAc(b1-2)Man(a1-3)[GlcNAc(b1-3)Gal(b1-4)GlcNAc(b1-3)Gal(b1-4)GlcNAc(b1-3)Gal(b1-4)GlcNAc(b1-2)Man(a1-6)]Man(b1-4)GlcNAc(b1-4)[Fuc(a1-6)]GlcNAc
How it was run: as §1

[25] = biological target: GlcNAc(b1-3)Gal(b1-4)GlcNAc(b1-3)Gal(b1-4)GlcNAc(b1-3)Gal(b1-4)GlcNAc(b1-2)[GlcNAc(b1-3)Gal(b1-4)GlcNAc(b1-3)Gal(b1-4)GlcNAc(b1-3)Gal(b1-4)GlcNAc(b1-6)]Man(a1-6)[GlcNAc(b1-3)Gal(b1-4)GlcNAc(b1-3)Gal(b1-4)GlcNAc(b1-3)Gal(b1-4)GlcNAc(b1-2)Man(a1-3)]Man(b1-4)GlcNAc(b1-4)[Fuc(a1-6)]GlcNAc
How it was run: as §1

[26] = biological target: GlcNAc(b1-3)Gal(b1-4)GlcNAc(b1-3)Gal(b1-4)GlcNAc(b1-3)Gal(b1-4)GlcNAc(b1-3)Gal(b1-4)GlcNAc(b1-2)Man(a1-3)[GlcNAc(b1-3)Gal(b1-4)GlcNAc(b1-3)Gal(b1-4)GlcNAc(b1-3)Gal(b1-4)GlcNAc(b1-3)Gal(b1-4)GlcNAc(b1-2)Man(a1-6)]Man(b1-4)GlcNAc(b1-4)GlcNAc
How it was run: as §1

[27] = biological target: GlcNAc(b1-3)Gal(b1-4)GlcNAc(b1-3)Gal(b1-4)GlcNAc(b1-3)Gal(b1-4)GlcNAc(b1-3)Gal(b1-4)GlcNAc(b1-2)Man(a1-3)[GlcNAc(b1-3)Gal(b1-4)GlcNAc(b1-3)Gal(b1-4)GlcNAc(b1-3)Gal(b1-4)GlcNAc(b1-3)Gal(b1-4)GlcNAc(b1-2)Man(a1-6)]Man(b1-4)GlcNAc(b1-4)[Fuc(a1-6)]GlcNAc
How it was run: as §1

[28] = biological target: GlcNAc(b1-3)Gal(b1-4)GlcNAc(b1-3)Gal(b1-4)GlcNAc(b1-3)Gal(b1-4)GlcNAc(b1-3)Gal(b1-4)GlcNAc(b1-2)[GlcNAc(b1-3)Gal(b1-4)GlcNAc(b1-3)Gal(b1-4)GlcNAc(b1-3)Gal(b1-4)GlcNAc(b1-3)Gal(b1-4)GlcNAc(b1-6)]Man(a1-6)[GlcNAc(b1-3)Gal(b1-4)GlcNAc(b1-3)Gal(b1-4)GlcNAc(b1-3)Gal(b1-4)GlcNAc(b1-3)Gal(b1-4)GlcNAc(b1-2)Man(a1-3)]Man(b1-4)GlcNAc(b1-4)[Fuc(a1-6)]GlcNAc
How it was run: as §1

[29] = biological target: GlcNAc(b1-3)Gal(b1-4)GlcNAc(b1-3)Gal(b1-4)GlcNAc(b1-3)GalNAc
How it was run: as §1

[30] = biological target: GlcNAc(b1-3)Gal(b1-4)GlcNAc(b1-3)GalNAc
How it was run: as §1

[31] = biological target: GlcNAc(b1-3)Gal(b1-4)GlcNAc(b1-3)[GlcNAc(b1-3)Gal(b1-4)GlcNAc(b1-3)]GalNAc
How it was run: as §1

[32] = biological target: GlcNAc(b1-3)Gal(b1-4)GlcNAc(b1-6)[Gal(b1-3)]GalNAc
How it was run: as §1

[33] = biological target: GlcNAc(b1-3)Gal(b1-4)GlcNAc(b1-6)[GlcNAc(b1-3)Gal(b1-3)]GalNAc
How it was run: as §1

[34] = biological target: GlcNAc(b1-3)Gal(b1-4)GlcNAc(b1-6)[GlcNAc(b1-3)]Gal(b1-4)GlcNAc
How it was run: as §1

GlcNAc(b1-3)GalNAc = biological target: GlcNAc(b1-3)GalNAc
How it was run: as §1

GlcNAc(b1-3)Man = biological target: GlcNAc(b1-3)Man
How it was run: as §1

[35] = biological target: GlcNAc(b1-3)[GlcNAc(b1-4)][GlcNAc(b1-6)]GlcNAc
How it was run: as §1

[36] = biological target: GlcNAc(b1-3)[GlcNAc(b1-6)]Gal(b1-4)GlcNAc
How it was run: as §1

[37] = biological target: GlcNAc(b1-3)[GlcNAc(b1-6)]GalNAc
How it was run: as §1

[38] = biological target: GlcNAc(b1-4)Gal(b1-4)GlcNAc
How it was run: as §1

GlcNAc(b1-4)GlcNAc = biological target: GlcNAc(b1-4)GlcNAc
How it was run: as §1

[39] = biological target: GlcNAc(b1-4)GlcNAc(b1-4)GlcNAc
How it was run: as §1

B1: XTP3-B-MRH1 (Homo sapiens), Q96DZ1 (protein)
chain: LLEPLFKQSSCSYRIESYWTYEVCHGKHIRQYHEEKETGQKINIHEYYLGNMLAKNLLFEKEREAEEKEKSNEIPTKNIEGQMTPYYPVGMGNGTPCSLKQNRPRSSTVMYICHPESKHEILSVAEVTTCEYEVVILTPLLCSHPKYRFRA
glycan array binding signal (z-score) [1]: -0.257 | glycan array binding signal (z-score) [2]: -1.24 | glycan array binding signal (z-score) [3]: 0.137 | glycan array binding signal (z-score) [4]: -0.552 | glycan array binding signal (z-score) [5]: -0.313 | glycan array binding signal (z-score) [6]: 0.083 | glycan array binding signal (z-score) [7]: 0.857 | glycan array binding signal (z-score) [8]: -0.731 | glycan array binding signal (z-score) [9]: -0.739 | glycan array binding signal (z-score) [10]: -0.423 | glycan array binding signal (z-score) [11]: -0.739 | glycan array binding signal (z-score) [12]: -0.964 | glycan array binding signal (z-score) [13]: -0.788 | glycan array binding signal (z-score) (GlcNAc(b1-3)Fuc): 0.326 | glycan array binding signal (z-score) (GlcNAc(b1-3)Gal): -0.445 | glycan array binding signal (z-score) [14]: 0.121 | glycan array binding signal (z-score) (GlcNAc(b1-3)Gal(b1-4)Glc): -0.891 | glycan array binding signal (z-score) [15]: -0.824 | glycan array binding signal (z-score) [16]: -0.918 | glycan array binding signal (z-score) [17]: -0.235 | glycan array binding signal (z-score) [18]: -0.432 | glycan array binding signal (z-score) [19]: 0.29 | glycan array binding signal (z-score) [20]: 2.48 | glycan array binding signal (z-score) [21]: -0.373 | glycan array binding signal (z-score) [22]: 1.51 | glycan array binding signal (z-score) [23]: 0.836 | glycan array binding signal (z-score) [24]: 4.18 | glycan array binding signal (z-score) [25]: 0.551 | glycan array binding signal (z-score) [26]: 0.927 | glycan array binding signal (z-score) [27]: 1.17 | glycan array binding signal (z-score) [28]: 1.01 | glycan array binding signal (z-score) [29]: 0.069 | glycan array binding signal (z-score) [30]: 0.221 | glycan array binding signal (z-score) [31]: 1.38 | glycan array binding signal (z-score) [32]: 0.242 | glycan array binding signal (z-score) [33]: 0.324 | glycan array binding signal (z-score) [34]: -0.938 | glycan array binding signal (z-score) (GlcNAc(b1-3)GalNAc): -0.878 | glycan array binding signal (z-score) (GlcNAc(b1-3)Man): -0.404 | glycan array binding signal (z-score) [35]: -1.04 | glycan array binding signal (z-score) [36]: -0.065 | glycan array binding signal (z-score) [37]: 0.251 | glycan array binding signal (z-score) [38]: -0.31 | glycan array binding signal (z-score) (GlcNAc(b1-4)GlcNAc): -0.705 | glycan array binding signal (z-score) [39]: 1.43
